Test results taken from patent US20250127887A1 (priority 2021, published 2025).
End groups of sequences in plain letters are not given here.

Experiment: general procedure: Fmoc solid-phase peptide synthesis
Settings: for conjugation yield / final HPLC purity / crude HPLC purity: conjugation step; for outcome: whole synthesis

Substance	conjugation yield	final HPLC purity (254 nm)	other results
(COOH-ethyl)4-PEG24-PEG12-(N3-DBCO)-Ahx-W5	62.3%		final HPLC purity (AUC at 220 nm): 94.6%
(CPNE1 LP)4-2323-(N3-DBCO)-Ahx-2B3W2			final HPLC purity (AUC at 220 nm): >90%
(CPNE1 min)4-2323-(N3-DBCO)-Ahx-2B3W2 or (SSPYSLHYL)4-2323-(N3-DBCO)-Ahx-2B3W2			final HPLC purity (AUC at 220 nm): >90%
(Mannose-PEG3)4-PEG24-PEG12-(N3-DBCO)-Ahx-W5	47.9%		final HPLC purity (AUC at 220 nm): 96.2%
(Mannose-PEG3)4-PEG24-PEG24-Ahx-W5	40.9%		final HPLC purity (AUC at 220 nm): 98.2%
(NH2-ethyl)2-PEG24-(N3-DBCO)-Ahx-2B3W2	38.4%		crude HPLC purity (220 nm): 89.6% AUC at 220 nm
DBCO-2-Amino-1,3-bis(carboxylethoxy)propane(Ahx-F′ 10)2	26.8%	83.4% AUC at 254 nm	
DBCO-2-Amino-1,3-bis(carboxylethoxy)propane(Ahx-W5)2	30.8%	>95% AUC at 254 nm	
DBCO-(Glu(2B)1(Trp)4)	55.4%	>95% AUC at 254 nm	
DBCO-(Glu(2B)2(Trp)3)	62.5%	>95% AUC at 254 nm	
DBCO-(Glu(2B)2(Trp)8)	16.3%	>95% AUC at 254 nm	
DBCO-(Glu(2B)3(Trp)2)	50.6%	>95% AUC at 254 nm	
DBCO-(Glu(2B)4(Trp)6)		>95% AUC at 254 nm	
DBCO-(Glu(2B)5(Gly)10)	36.2%	>95% AUC at 254 nm	
DBCO-(Glu(2B)5(Trp)10(Gly)15)	26%		
DBCO-(Glu(2B)6(Trp)4)		>95% AUC at 254 nm	
DBCO-(Glu(2BXy)1(Trp)4)	73.3%	>95% AUC at 254 nm	
DBCO-(Glu(2BXy)3(Trp)2)	38.1%		
DBCO-Ahx-(F′)20	20.5%	94.4% AUC at 254 nm	
DBCO-Ahx-(Glu)3(Trp)2			final HPLC purity (220 nm): >95% AUC at 220 nm

Substance	conjugation yield	final HPLC purity (254 nm)	other results
DBCO-Ahx-F′10	50.6%	>95% AUC at 254 nm	
DBCO-Ahx-F′ 5	41.5%	>95% AUC at 254 nm	
DBCO-Ahx-Glu(2B)3(Trp)2	60%		final HPLC purity (220 nm): >95% AUC at 220 nm
DBCO-Ahx-W5	71.9%	92.6% AUC at 254 nm	
FFFFFFFFFF			outcome: N
FWFWFWFWFW			outcome: N
K8-PEG24-(N3-DBCO)-Ahx-W5			crude HPLC purity (254 nm): 90.2% AUC at 254 nm
LLLLLLLLLL			outcome: N
TT-PEG12-(N3-DBCO)-Ahx-W5			crude HPLC purity (AUC at 220 nm): 83%
TT-PEG24-(N3-DBCO)-Ahx-W5			crude HPLC purity (AUC at 220 nm): 84%
WWWWWWWWWW			outcome: Crude
{COOH-PEG24}4-{propargyl}4K2K{Lys(N3)}-DBCO-2-Amino-1,3-bis(carboxylethoxy)propane(2BXy)4			final HPLC purity (254 nm, run 1): 98.0% AUC at 254 nm; final HPLC purity (254 nm, run 2): 90.4% AUC at 254 nm; conjugation yield (run 1): 70.3%; conjugation yield (run 2): 71.0%
{COOH-PEG25}4-{NH2}4K2K{Lys(N3)}-DBCO-Ahx-W5			crude HPLC purity (AUC at 220 nm): 94.3%
{NH2—PEG24}4-{propargyl}4K2K{Lys(N3)}-DBCO-2-Amino-1,3-bis(carboxylethoxy)propane(2BXy)4			final HPLC purity (254 nm, run 1): 95.5% AUC at 254 nm; final HPLC purity (254 nm, run 2): 67.7% AUC at 254 nm; conjugation yield (run 1): 58.4%; conjugation yield (run 2): 68.0%
{OH-PEG24}4-{propargyl}4K2K{Lys(N3)}-DBCO-2- Amino 1,3-bis(carboxylethoxy)propane(2BXy)4	70.5%	99.3% AUC at 254 nm	
{OH-PEG24}4-{propargyl}4K2K{Lys(N3)}-DBCO-2-Amino-1,3-bis(carboxylethoxy)propane(Doxorubucin)4	69.3%	95.8% AUC at 254 nm	
{OH-PEG24}4-{propargyl}4K2K{Lys(N3)}-DBCO-Ahx-(F′)10	64.6%	94.1% AUC at 254 nm	
{propargyl}4K2K{Lys(N3)}-DBCO-2-Amino-1,3-bis(carboxylethoxy)propane(2BXy)4	47.5%	98.6% AUC at 254 nm	
{propargyl}4K2K{Lys(N3)}-DBCO-2-Amino-1,3-bis(carboxylethoxy)propane(Doxorubicin)4	40.9%	91.3% AUC at 254 nm	
{propargyl}4K2K{Lys(N3)}-DBCO-Ahx-(F′)10			crude HPLC purity (254 nm): 96.1% AUC at 254 nm
